Here are results for 6 molecules from article PMC9587286.

Chains of the proteins cited; added tags and fusions are not shown. Lines headed by an entry give the natural chain unless they say otherwise; changes in a name come on top.
UniProt Q9UBN7: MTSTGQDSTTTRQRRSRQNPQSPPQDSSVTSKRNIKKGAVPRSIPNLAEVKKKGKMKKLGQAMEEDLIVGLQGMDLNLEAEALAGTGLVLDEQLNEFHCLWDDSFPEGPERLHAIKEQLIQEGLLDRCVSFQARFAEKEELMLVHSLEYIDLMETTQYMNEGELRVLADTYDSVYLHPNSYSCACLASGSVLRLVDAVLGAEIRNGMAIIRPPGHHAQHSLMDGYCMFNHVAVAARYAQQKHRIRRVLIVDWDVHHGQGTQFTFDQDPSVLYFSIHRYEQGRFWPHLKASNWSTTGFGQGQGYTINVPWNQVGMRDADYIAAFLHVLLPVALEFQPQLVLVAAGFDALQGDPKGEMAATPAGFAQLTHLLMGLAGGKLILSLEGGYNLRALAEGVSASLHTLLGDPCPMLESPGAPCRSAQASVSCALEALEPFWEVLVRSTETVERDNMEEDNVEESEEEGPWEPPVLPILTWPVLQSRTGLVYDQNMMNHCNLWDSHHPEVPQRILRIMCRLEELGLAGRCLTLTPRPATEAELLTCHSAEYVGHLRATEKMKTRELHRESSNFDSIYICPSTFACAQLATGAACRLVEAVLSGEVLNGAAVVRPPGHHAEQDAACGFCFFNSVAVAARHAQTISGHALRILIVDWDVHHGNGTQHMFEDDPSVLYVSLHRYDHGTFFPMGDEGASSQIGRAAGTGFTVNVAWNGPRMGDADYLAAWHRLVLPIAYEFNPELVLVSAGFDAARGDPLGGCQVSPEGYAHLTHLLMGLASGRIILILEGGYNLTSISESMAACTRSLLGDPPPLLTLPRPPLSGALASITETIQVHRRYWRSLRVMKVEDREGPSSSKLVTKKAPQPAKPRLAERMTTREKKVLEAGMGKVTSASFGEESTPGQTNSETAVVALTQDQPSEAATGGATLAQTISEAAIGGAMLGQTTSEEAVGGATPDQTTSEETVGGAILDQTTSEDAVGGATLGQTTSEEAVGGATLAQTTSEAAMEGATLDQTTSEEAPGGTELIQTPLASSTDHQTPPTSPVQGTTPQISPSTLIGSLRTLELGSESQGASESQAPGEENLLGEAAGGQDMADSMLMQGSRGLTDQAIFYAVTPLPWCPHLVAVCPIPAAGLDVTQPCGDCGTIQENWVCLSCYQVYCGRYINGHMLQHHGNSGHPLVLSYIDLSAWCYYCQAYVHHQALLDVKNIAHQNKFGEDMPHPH

Assay [1] deals with T1, HA-TAK1 (transforming growth factor β-activated kinase 1), full length (UniProt O43318).
T1 sequence: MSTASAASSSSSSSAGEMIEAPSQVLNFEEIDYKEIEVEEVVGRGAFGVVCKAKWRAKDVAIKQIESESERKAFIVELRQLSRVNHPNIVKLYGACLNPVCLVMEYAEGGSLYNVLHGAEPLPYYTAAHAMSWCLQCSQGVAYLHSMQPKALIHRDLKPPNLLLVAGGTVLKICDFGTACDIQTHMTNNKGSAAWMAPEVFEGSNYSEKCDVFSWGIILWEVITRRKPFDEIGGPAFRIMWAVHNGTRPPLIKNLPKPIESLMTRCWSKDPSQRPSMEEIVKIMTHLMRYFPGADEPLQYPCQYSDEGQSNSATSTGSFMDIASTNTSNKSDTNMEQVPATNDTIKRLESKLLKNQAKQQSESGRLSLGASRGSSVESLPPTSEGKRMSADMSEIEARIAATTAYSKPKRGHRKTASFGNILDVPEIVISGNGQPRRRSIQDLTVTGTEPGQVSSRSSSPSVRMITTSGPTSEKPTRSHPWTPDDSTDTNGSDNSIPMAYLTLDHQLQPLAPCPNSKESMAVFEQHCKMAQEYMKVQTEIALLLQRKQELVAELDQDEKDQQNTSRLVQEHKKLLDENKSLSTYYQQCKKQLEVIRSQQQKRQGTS
Briefly: co-IP; Flag-HDAC6 and HA-TAK1 co-expressed in HEK293T cells for 48 h; 1 mg lysate protein with 2 μg antibody (anti-Flag or anti-HA) overnight at 4 °C, protein A/G beads 3 h, three washes with cold IP buffer; both directions.

Assay [2] addresses T1, HA-TAK1 (transforming growth factor β-activated kinase 1), full length. Kind of assay: co-IP; constructs expressing full-length and truncated HDAC6 and TAK1 in transfected cells; cell line not stated for this experiment.
For assay [3], the target named is T2, TAK1, endogenous in HCT116 cells (human (endogenous in HCT116)) (UniProt O43318).
T2 sequence: T1 sequence
Kind of assay: co-IP; endogenous TAK1 and HDAC6 in HCT116 cells, immunoprecipitation in both directions.

The target of assay [4] is Flag-tagged HDAC6 (histone deacetylase 6), full length (UniProt Q9UBN7). Kind of assay: co-IP; constructs expressing full-length and truncated HDAC6 and TAK1 in transfected cells; cell line not stated for this experiment.
The target is the same in assay [5]. Kind of assay: co-IP; Flag-HDAC6 and HA-TAK1 co-expressed in HEK293T cells for 48 h; 1 mg lysate protein with 2 μg antibody (anti-Flag or anti-HA) overnight at 4 °C, protein A/G beads 3 h, three washes with cold IP buffer; both directions.
Assay [6] deals with HDAC6, endogenous in HCT116 cells (human (endogenous in HCT116)) (UniProt Q9UBN7). Kind of assay: co-IP; endogenous TAK1 and HDAC6 in HCT116 cells, immunoprecipitation in both directions.

No constants are given. Whether binding was seen depends on the method and setting. Binding seen in cells or lysates may run through a third protein. Some results given as binding are weak or reduced against the parent protein; the word gives no strength. For part of these data: Sequences can lack the tags named with a protein.

Turning to “Flag-tagged HDAC6 (histone deacetylase 6), full length (from UniProt Q9UBN7 1-1215) (enzyme)”, the binding entry in assay [1] is “binds”.
With “HDAC6 1-840 aa region (contains two deacetylase activity domains) (from UniProt Q9UBN7 1-840) (domain or fragment)”, in assay [2], the binding entry was “binds”.
Consider “HDAC6, endogenous in HCT116 cells (from UniProt Q9UBN7 1-1215) (enzyme)”, for which the binding entry in assay [3] was “binds”.

B1: TAK1 1-300 aa region (includes the kinase domain) (domain or fragment, UniProt O43318 1-300)
chain: MSTASAASSSSSSSAGEMIEAPSQVLNFEEIDYKEIEVEEVVGRGAFGVVCKAKWRAKDVAIKQIESESERKAFIVELRQLSRVNHPNIVKLYGACLNPVCLVMEYAEGGSLYNVLHGAEPLPYYTAAHAMSWCLQCSQGVAYLHSMQPKALIHRDLKPPNLLLVAGGTVLKICDFGTACDIQTHMTNNKGSAAWMAPEVFEGSNYSEKCDVFSWGIILWEVITRRKPFDEIGGPAFRIMWAVHNGTRPPLIKNLPKPIESLMTRCWSKDPSQRPSMEEIVKIMTHLMRYFPGADEPLQY
For B1, the binding entry in assay [4] was “binds”.

B2: HA-TAK1 (transforming growth factor β-activated kinase 1), full length (enzyme, UniProt O43318 1-606)
chain: T1 sequence
Take B2: the binding entry in assay [5] is reported as “binds”.

B3: TAK1, endogenous in HCT116 cells (enzyme, UniProt O43318 1-606)
chain: T1 sequence
Turning to B3, the binding result in assay [6] was “binds”.
